No constants are given. Whether binding was seen depends on the method and setting. For some of these results: In cells and extracts the contact can be indirect. Some entries that bind do so weakly or less than the wild type.

Chains of the proteins cited; added tags and fusions are not shown. Residues count along the entry.
UniProt P25445, residues 26-335: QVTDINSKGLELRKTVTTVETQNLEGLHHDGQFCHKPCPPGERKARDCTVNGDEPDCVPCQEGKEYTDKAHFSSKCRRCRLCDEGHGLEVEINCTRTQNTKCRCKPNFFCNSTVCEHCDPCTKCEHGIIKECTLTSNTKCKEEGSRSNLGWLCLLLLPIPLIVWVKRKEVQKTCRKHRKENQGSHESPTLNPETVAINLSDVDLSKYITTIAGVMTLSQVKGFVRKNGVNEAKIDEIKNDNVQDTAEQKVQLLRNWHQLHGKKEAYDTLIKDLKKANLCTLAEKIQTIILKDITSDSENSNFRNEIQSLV
UniProt P97523, residues 25-1382: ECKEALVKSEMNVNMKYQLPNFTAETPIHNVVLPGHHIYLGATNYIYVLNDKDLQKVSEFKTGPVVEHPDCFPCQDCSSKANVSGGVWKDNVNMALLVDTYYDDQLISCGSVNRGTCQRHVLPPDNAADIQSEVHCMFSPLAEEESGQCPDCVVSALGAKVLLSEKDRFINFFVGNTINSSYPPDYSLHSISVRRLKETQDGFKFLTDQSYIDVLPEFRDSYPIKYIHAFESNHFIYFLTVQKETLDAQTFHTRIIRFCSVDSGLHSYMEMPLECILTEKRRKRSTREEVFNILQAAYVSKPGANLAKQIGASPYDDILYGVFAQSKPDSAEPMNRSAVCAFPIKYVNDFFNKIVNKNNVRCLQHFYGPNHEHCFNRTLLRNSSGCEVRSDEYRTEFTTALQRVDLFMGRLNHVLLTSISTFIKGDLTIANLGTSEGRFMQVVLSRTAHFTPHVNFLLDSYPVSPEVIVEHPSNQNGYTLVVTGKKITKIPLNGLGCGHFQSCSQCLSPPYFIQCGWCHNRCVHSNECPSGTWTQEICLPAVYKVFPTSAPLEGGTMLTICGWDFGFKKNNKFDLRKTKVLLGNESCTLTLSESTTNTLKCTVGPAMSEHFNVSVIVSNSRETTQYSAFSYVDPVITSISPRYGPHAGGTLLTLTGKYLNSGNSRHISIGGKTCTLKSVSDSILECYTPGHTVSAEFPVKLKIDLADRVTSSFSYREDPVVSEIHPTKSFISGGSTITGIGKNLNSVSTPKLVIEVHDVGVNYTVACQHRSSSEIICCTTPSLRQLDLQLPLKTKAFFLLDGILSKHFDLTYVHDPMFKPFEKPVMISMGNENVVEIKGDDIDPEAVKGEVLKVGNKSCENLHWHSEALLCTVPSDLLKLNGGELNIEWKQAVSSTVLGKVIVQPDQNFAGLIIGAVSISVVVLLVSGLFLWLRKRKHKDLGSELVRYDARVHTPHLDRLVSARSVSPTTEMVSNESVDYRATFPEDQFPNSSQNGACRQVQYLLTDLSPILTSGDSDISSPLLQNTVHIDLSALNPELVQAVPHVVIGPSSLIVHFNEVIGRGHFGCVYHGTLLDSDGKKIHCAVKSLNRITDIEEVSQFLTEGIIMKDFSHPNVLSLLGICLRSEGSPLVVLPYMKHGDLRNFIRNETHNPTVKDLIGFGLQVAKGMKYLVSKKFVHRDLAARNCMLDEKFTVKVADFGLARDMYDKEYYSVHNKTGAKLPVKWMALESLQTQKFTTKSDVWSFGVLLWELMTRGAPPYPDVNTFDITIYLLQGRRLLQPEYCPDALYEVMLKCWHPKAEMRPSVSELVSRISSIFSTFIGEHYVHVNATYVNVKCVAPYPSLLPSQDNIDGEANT
UniProt P08581, residues 25-1390: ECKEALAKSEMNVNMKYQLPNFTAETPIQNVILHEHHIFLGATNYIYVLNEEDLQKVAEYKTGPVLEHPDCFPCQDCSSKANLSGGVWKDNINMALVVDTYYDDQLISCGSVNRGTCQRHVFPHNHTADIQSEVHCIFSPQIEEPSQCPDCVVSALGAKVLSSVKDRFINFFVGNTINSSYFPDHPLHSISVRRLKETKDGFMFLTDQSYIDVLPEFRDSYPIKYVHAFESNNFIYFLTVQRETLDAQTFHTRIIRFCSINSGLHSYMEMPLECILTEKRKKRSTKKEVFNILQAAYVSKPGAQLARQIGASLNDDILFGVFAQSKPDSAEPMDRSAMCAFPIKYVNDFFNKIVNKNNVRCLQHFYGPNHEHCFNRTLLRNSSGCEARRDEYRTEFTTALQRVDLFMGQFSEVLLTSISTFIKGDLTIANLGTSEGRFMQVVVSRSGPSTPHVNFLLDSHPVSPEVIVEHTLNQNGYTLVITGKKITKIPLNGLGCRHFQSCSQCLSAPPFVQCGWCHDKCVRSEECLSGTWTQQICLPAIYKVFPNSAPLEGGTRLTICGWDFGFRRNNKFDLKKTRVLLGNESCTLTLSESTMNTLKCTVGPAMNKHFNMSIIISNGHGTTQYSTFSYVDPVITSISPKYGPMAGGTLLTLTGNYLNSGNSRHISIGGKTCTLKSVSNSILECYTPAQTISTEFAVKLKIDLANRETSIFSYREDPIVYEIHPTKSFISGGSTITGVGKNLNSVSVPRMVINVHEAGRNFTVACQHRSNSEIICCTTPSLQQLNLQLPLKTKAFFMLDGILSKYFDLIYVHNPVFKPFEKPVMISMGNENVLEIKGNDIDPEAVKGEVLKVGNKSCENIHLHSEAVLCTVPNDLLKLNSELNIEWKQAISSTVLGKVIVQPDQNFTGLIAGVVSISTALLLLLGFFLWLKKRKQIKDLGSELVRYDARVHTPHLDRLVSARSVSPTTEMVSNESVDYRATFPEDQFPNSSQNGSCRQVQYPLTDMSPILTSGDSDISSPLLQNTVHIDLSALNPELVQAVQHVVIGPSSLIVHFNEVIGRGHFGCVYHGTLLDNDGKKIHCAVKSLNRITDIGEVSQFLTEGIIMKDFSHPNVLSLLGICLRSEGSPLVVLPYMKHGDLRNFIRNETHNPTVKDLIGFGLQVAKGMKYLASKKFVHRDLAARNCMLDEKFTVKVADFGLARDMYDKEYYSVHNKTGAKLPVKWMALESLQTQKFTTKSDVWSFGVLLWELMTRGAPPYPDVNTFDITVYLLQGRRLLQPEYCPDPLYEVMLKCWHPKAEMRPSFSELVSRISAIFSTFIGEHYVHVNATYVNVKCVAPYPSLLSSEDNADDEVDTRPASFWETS

Our source for the binding values is paper PMC10444199.

In experiment [1] the target is T1, Fas (death receptor FAS), rat (rat (endogenous in Lewis rat splenic CD8+ T cells)) (UniProt Q63199).
T1 sequence: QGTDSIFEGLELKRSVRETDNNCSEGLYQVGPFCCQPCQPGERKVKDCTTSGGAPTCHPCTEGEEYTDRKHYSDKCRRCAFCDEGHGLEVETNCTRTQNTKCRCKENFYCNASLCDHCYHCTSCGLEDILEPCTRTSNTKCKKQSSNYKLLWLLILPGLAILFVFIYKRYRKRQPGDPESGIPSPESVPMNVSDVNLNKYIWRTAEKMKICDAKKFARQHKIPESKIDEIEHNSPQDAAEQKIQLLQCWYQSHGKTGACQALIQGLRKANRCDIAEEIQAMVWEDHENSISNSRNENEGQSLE
Briefly: co-IP; lysates of 1 x 10^6 MACS-purified Lewis rat naive splenic CD8+ T cells; IP with an antibody against Fas or cMet on protein A/G magnetic beads, IB with anti-cMet (145 kDa) or anti-Fas (35 kDa); isotype IgG controls.

In experiment [2] the target is FAS, human (human (endogenous in peripheral blood CD8+ T cells)) (UniProt P25445). Briefly: co-IP; human healthy peripheral blood MACS-purified CD8+ T cells; cMet-FAS interaction, two individuals (n1-n2).
The target of experiment [3] is T1, Fas (death receptor FAS), rat (rat (endogenous in Lewis rat splenic CD8+ T cells)). The experiment is described as follows: SPR; localized surface plasmon resonance (LSPR); 50 ug/mL Fas antibody immobilised on a COOH sensor chip; total protein (50 ug/mL) of cell lysates of MACS-purified splenic aCD8+ T cells injected at 20 ul/min, Fas captured; antibodies against cMet, FADD and caspase-8 added for 5 min, dissociation 7 min; IgG1 as negative control; cells untreated (allo-OLT), treated with h-rHGF within 72 h, or with anti-cMet-Ab. (In general: Surface plasmon resonance follows binding to a sensor surface in real time, without labels.)

For the molecule “cMet (HGF-only receptor), rat (from UniProt P97523 25-1382)”, the binding entry in experiment [1] is “binds”. “cMet, human (from UniProt P08581 25-1390) (receptor)”: the binding result in experiment [2] is “binds”.

B1: Fas-associated protein with death domain (FADD), rat (protein, UniProt Q8R2E7 1-208)
chain: MDPFLVLLHSLSSSLSGNDLTDLKFLCRERVSKRKLERVQSGLDLFSVLLEQNDLERGHTGLLRELLASLGRHDLLQRLDDFEAGATTAATPGEADLRVAFDIVCDNVGRDWKRLARELKVSEAKIDGIEERYPRSLSDRVRETLRVWKNVEKENASVAGLVKALRACRLNLVADLVEEALMAQGSVSKSDDTSSALRDSTVSFSETP
As for B1, in experiment [3], the binding result is “binds”.

B2: caspase-8, rat (enzyme, UniProt Q9JHX4 1-482)
chain: MDFHSCLYDIAERLGNEELAALKFLCLDHIPQKKQESINDVLVLFQRLQEEGMLEEDNLSFLKELLFHISRRDLLSRVLKSSPEEMVRELQVLGKAQVSAYRVMLFKLSEDMDKEDLKSFKFLLITEIPKCKLQDNSSLLDIFVEMEKRTILAENNLVTLKSICFRVNRSLLGRIDDYERSSTERRMSTEGGEELPVSVLDEVTIKMQDMWDSPGEQESESLNSDNVYQMKSKPRGYCLIFNNNNFSKAREDIPKLSNMRDRKGTNYDEEALSKTFKELHFEIVSFSDCTASQIHEVLVSYQSKDHKGKDCFICCILSHGDKGIVYGTDGKEASIYELTSYFTGSKCPSLAGKPKIFFIQACQGNNFQKAVPVPDETGLEQEHVLEEDSSSYKNYIPDEADFLLGMATVKNCVSYRDPTRGTWYIQSLCQSLRERCPRGEDILSILTGVNYDVSNKDNPRNMGKQMPQPIFTLRKKLFFPPN
Turning to B2, the binding entry in experiment [3] is reported as “binds”.
